This note sets out measurements from paper PMC9659186.

These are yes or no findings as the source states them, for the method shown. Binding seen in cells or lysates may run through a third protein. A result given as binding can be weak or reduced; the word gives no strength.

B1: AtWRKY40-HF (protein, UniProt Q9SAH7 1-302)
chain: MDQYSSSLVDTSLDLTIGVTRMRVEEDPPTSALVEELNRVSAENKKLSEMLTLMCDNYNVLRKQLMEYVNKSNITERDQISPPKKRKSPAREDAFSCAVIGGVSESSSTDQDEYLCKKQREETVVKEKVSRVYYKTEASDTTLVVKDGYQWRKYGQKVTRDNPSPRAYFKCACAPSCSVKKKVQRSVEDQSVLVATYEGEHNHPMPSQIDSNNGLNRHISHGGSASTPVAANRRSSLTVPVTTVDMIESKKVTSPTSRIDFPQVQKLLVEQMASSLTKDPNFTAALAAAVTGKLYQQNHTEK
B2: AtWRKY38-HF (protein, UniProt Q8GWF1 1-289)
chain: MEMNSPHEKAVQAIRYGHSCAMRLKRRLNHPMADGGPLSSYDLAKSIVESFSNAISILSAKPETEDDQFSDLSSRDSSPPPQGSPSKKRKIDSTNSSENWRDDSPDPIYYDGYLWRKYGQKSIKKSNHQRSYYRCSYNKDHNCEARKHEQKIKDNPPVYRTTYFGHHTCKTEHNLDAIFIAGQDPLDDFKSTQMIRFGKDQDQEKESRSNGFSLSVKHEEDIIKEQAIDQYREITSNDQDCQDVIEEYLSSPSGSYPPSSSSGSESADFNSDLLFDNPDSWDRYDQFYF
B3: AtWRKY22-HF (protein, UniProt O04609 1-298)
chain: MADDWDLHAVVRGCSAVSSSATTTVYSPGVSSHTNPIFTVGRQSNAVSFGEIRDLYTPFTQESVVSSFSCINYPEEPRKPQNQKRPLSLSASSGSVTSKPSGSNTSRSKRRKIQHKKVCHVAAEALNSDVWAWRKYGQKPIKGSPYPRGYYRCSTSKGCLARKQVERNRSDPKMFIVTYTAEHNHPAPTHRNSLAGSTRQKPSDQQTSKSPTTTIATYSSSPVTSADEFVLPVEDHLAVGDLDGEEDLLSLSDTVVSDDFFDGLEEFAAGDSFSGNSAPASFDLSWVVNSAATTTGGI

The experiment has as its target GFP-StATG8-2.1 (potato (Solanum tuberosum)). Put plainly: co-IP; GFP-StATG8-2.1 co-expressed with AtWRKY-HF in N. benthamiana leaves; total protein extracts in GTEN buffer (150 mM Tris-HCl pH 7.5, 150 mM NaCl, 10% glycerol, 10 mM EDTA, 10 mM DTT); precipitated with GFP Trap A beads, two hours in the cool room; blots with anti-GFP and anti-FLAG.
Take B1: the binding result is listed as “binds”.
Consider B2, for which the binding entry is “no binding”.
Turning to B3, the binding entry is “binds”.
